The results in this text go back to ChEMBL document CHEMBL4808254, “Further SAR studies on natural template based neuroprotective molecules for the treatment of Alzheimer's disease” (Bioorg Med Chem, 2021).

As a reminder, the Papp is the rate of passage across a membrane or cell layer, normalised by area and donor concentration. A low value points to slow passage.

This data set is described as follows: Permeability of the compound in PBS buffer at pH 7.4 at 500 uM incubated for 18 hrs by PAMPA-BBB assay. Background: PAMPA measures passive passage across an artificial lipid membrane.

`COc1cc2c(cc1OC)C(=O)C(CC1CCN(Cc3ccccc3)CC1)C2` (stereo unspecified) [DONEPEZIL] registered an apparent permeability (Papp) at 18 h, 500 µM of 15.6 ×10⁻⁶ cm/s.
